Here are results for two molecules from paper PMC4312039.

Residue numbers refer to the chain shown, from its start. Results are given in words; binding and its absence hold for the method and conditions named. Binding seen in cells or lysates may run through a third protein. Some entries that bind do so weakly or less than the wild type. Where a sequence is shown, tags or fusion partners need not be part of it.

What all share (assay): co-IP; GFP trap beads on lysates of Dmel cells transiently transfected for 48 h, mitotic cells enriched with MG132 (25 µM, 5 h); lysis in 10 mM Tris-HCl pH 7.5, 150 mM NaCl, 0.5 mM EDTA, 0.5% NP-40; beads 1 hour at 4°C; the endogenous partner detected by immunoblotting
Background: Immunoblotting shows a protein as a band on a membrane.

The target of experiment [1] is T1, Shrub-GFP (GFP-tagged Shrub, from pAc-Shrub-GFP) (Drosophila melanogaster) (UniProt Q8T0Q4).
T1 sequence: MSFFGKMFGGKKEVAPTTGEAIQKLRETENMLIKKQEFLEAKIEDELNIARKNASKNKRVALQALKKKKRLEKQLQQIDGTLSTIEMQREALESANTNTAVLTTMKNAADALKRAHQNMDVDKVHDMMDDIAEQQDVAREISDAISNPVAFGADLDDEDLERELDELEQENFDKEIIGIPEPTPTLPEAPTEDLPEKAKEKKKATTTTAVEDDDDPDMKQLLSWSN

For experiment [2], the target named is T2, GFP-ALIX-I211D (Drosophila melanogaster) (UniProt Q9VB05).
T2 sequence: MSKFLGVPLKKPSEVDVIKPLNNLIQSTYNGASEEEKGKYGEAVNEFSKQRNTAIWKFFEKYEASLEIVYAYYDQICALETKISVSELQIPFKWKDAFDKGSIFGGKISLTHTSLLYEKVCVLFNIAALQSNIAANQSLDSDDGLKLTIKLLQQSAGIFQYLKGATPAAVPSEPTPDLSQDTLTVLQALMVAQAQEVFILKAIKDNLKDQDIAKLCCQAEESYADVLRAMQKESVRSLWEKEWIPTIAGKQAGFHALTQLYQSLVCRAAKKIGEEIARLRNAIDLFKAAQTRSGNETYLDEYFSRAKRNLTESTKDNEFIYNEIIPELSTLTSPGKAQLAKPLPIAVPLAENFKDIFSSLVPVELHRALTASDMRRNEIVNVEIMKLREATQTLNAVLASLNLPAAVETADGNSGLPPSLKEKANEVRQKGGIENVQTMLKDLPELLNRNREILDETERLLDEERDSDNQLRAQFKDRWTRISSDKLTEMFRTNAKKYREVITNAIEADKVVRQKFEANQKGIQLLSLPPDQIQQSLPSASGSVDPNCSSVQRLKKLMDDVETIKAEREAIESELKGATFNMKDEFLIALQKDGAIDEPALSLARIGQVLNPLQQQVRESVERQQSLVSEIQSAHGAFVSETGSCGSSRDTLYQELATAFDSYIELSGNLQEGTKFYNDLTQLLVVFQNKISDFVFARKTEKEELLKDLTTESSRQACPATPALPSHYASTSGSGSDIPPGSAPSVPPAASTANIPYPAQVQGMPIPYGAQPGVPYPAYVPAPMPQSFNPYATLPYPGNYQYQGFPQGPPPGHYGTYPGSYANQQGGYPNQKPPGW

Experiment [3] concerns the target T3, wild type GFP-ALIX (GFP-ALIX-wt, from pAGW-ALIX-wt) (Drosophila melanogaster) (UniProt Q9VB05).
T3 sequence: T2 sequence with D211I

For experiment [4], the target named is T4, GFP-ALIX-F198D (Drosophila melanogaster) (UniProt Q9VB05).
T4 sequence: T2 sequence with F198D, D211I

B1: ALIX (ALG-2-interacting protein X), endogenous Drosophila protein (protein, UniProt Q9VB05 1-836)
chain: T2 sequence with D211I
Take B1: the binding entry in experiment [1] is reported as “binds”.

B2: Shrub, endogenous Drosophila protein (protein, UniProt Q8T0Q4 1-226)
chain: T1 sequence
As for B2, the binding result in experiment [2] was “binds weakly”; in experiment [3] it was “binds”; in experiment [4], “binds weakly”.
